Over roughly 33,000 sequences, “E-score (-0.5 to 0.5)” has its median near -0.015; the highest 2% begin near 0.3. This is one part of the list.
Biological target: T1, Abf1 (UniProt P14164)
T1 sequence: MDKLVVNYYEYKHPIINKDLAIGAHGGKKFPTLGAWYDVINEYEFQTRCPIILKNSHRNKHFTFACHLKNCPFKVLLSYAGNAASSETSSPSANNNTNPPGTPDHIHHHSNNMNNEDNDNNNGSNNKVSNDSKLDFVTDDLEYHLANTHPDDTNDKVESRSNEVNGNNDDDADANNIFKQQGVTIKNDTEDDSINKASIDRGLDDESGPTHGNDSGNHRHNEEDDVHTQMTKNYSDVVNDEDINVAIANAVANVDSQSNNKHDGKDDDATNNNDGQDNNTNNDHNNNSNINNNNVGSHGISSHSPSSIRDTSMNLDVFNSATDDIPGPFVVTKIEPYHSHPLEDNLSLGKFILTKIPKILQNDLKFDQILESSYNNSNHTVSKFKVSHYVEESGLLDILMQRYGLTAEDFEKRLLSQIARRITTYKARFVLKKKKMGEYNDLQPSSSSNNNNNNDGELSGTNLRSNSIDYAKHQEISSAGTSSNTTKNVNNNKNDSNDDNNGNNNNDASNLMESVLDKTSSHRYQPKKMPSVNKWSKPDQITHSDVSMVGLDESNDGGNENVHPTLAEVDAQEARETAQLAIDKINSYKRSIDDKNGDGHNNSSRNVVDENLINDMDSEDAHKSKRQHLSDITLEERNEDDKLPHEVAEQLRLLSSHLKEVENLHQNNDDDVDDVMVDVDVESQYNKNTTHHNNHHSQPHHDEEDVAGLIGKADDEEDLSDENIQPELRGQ
Assay: PBM E-score (8-mer binding enrichment) (E-score (-0.5 to 0.5)); higher = stronger / more preferred TF binding
Conditions: protein concentration: 200 nM; construct: GST-full length
How it was run: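 Universal all-10-mer Agilent arrays, fresh or stripped once, were converted to double-stranded form by primer extension. GST-tagged yeast transcription factors from PURExpress in vitro transcription/translation, full-length or DNA-binding domain only, were applied at about 100-200 nM and detected with fluorescent anti-GST. After masliner normalisation, the Universal PBM Analysis Suite scored each ungapped eight-base word together with its reverse complement by E-score.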

Sequence	PBM E-score
ACTGAGAG	-0.0505
AGCGATTG	-0.0461
TGCCAGAA	-0.152
GAGAAGAA	0.0903
GTGGCATA	-0.00846
GGGTCTGA	-0.273
CCTACATA	-0.147
AGTCGAAA	-0.0186
AGGTTCTG	-0.23
TACTTGCA	-0.0785
ACGGTACG	0.283
ACTTCTAA	0.0967
GCCCGTCC	-0.0682
GACAGTCA	0.0421
TAGTTTCA	0.121
GTAAATAA	0.211
ATATGCCG	0.174
AGTAGCTC	-0.138
GGAACTCC	-0.154
ACTGGACT	-0.0415
CACCTCGG	-0.143
TACATGAA	-0.0145
CACAGACG	0.103
GTCCTGTA	0.00173
GACATAAA	0.185

Sequence	PBM E-score
GTATCCTA	0.146
AGGACATA	0.0984
CGAGTGCG	0.098
AGAGACTC	-0.00594
CTAGAGTC	-0.226
GTGTAAAC	-0.0109
ATGTATCG	0.211
ATCAGGTG	0.0231
CTAAAGCA	0.0813
AAGGCATC	-0.158
ACGTTTGG	-0.0459
ACACTGCA	-0.14
ACCGGGGA	-0.293
CTTCTTCC	-0.271
TGAGATCA	0.268
AGCCAACC	-0.111
AAGACGAC	0.164
AATCAAAT	0.0492
ATTTAACA	0.0814
AGAAAGGA	-0.228
ACCAGAAC	-0.0176
ATACTCAT	0.0261
CGCGTCAG	-0.106
GAGAGGAA	-0.111
CGGAAAAA	0.058

Given as labelled records: entries from further up.
TGCCAGAA
  PBM E-score = -0.152
ACTTCTAA
  PBM E-score = 0.0967
CGCGTCAG
  PBM E-score = -0.106

Next part:

Sequence	PBM E-score
AACTGTGG	-0.183
CCAATTCC	-0.00888
ATTATCGC	0.295
AGGCAGGC	-0.18
ATGGACAA	0.119
AGGGTATG	-0.123
CCCCGGGG	-0.261
GAAGCACA	-0.0155
CAATCCCG	-0.103
ATACCGTG	0.201
ACTACTTG	-0.00073
ATTTCTAC	0.0648
AACTTAAC	0.112
GCACGTGA	0.0942
CATTCAGA	-0.00928
ATCCGCTA	0.0201
GCGTGTCC	-0.0159
ACACATGT	0.036
CATTAACG	0.0059
AAGAATCA	-0.00225
ACCTGGGC	-0.278
GGTTGAAC	0.037
ATATCACG	0.401
CGCATAAA	0.169
CCTGATTC	-0.0368

Sequence	PBM E-score
ATTAAGAC	-0.00422
TGTACACA	0.0657
ACCCCGGA	0.00074
GCACTCAA	-0.288
AGCACCGA	0.162
ATACTGGA	0.157
AAAAGGCA	0.0834
AAAGTGCT	0.0641
CTGACAAA	0.0266
CAACCACA	0.135
AAAGGATT	-0.105
ACATAGAC	-0.0915
ACACATCC	0.0452
GACTGCAA	-0.172
CGCCCCGC	-0.238
GGTGTTGA	-0.0204
AAGGCAAT	-0.105
ATAGCCTG	-0.137
AAGCCCAG	-0.179
AACGTACT	0.267
TCCAATAA	0.0219
TAACATGA	0.201
AAGCTTAC	-0.0896
TCGGTGAA	0.115
CAGTGCTC	-0.125

As entered above.
Entry for TGAGATCA under PBM E-score: 0.268
Entry for AACTTAAC under PBM E-score: 0.112
Entry for AAGCCCAG under PBM E-score: -0.179
Entry for CGCATAAA under PBM E-score: 0.169
Entry for ATGTATCG under PBM E-score: 0.211
Entry for AGTCGAAA under PBM E-score: -0.0186

Further records

Sequence	PBM E-score
ATTAAGCA	0.0415
CGCCCTGC	-0.00866
GAGGGAGA	-0.215
AAAACCTC	-0.0135
ACTGTGCA	0.0139
CGAGGTTA	-0.00406
CCTTTTTA	0.044
TGAGGCCA	-0.111
CGTAAATC	0.131
AGCCTACG	0.164
CATTGGAC	-0.101
AATCTATA	0.118
ATAGGATG	0.156
AAGCGTAC	-0.198
CGGGGTGA	0.0917
AGCGAGGC	-0.0881
ATAGTAAG	-0.0777
CACGTACA	0.0758
AGTCCGCC	-0.228
GATTTAGA	0.135
CGCAACCG	0.0292
GACTTCGA	-0.165
GCGAGTTA	0.0994
CAGCTTCG	0.0552
GGACCACA	-0.0335

Sequence	PBM E-score
CGTTTTAG	0.0296
ACGAAGTA	0.169
AAAGTGTT	0.0602
GCTCAGGA	-0.105
GGACTGTA	0.107
ACATCGCT	0.227
CGGCAAAC	0.0403
ACTCGGGG	-0.157
AGGCAGAT	0.0196
AATGCGGT	-0.126
CCTCCAGA	-0.177
AGGTTCCA	-0.239
TAAATGCA	0.0499
ATCATTGG	0.208
CATCCCTC	-0.081
TAATTAAA	0.051
GGAGTCCA	-0.224
CAACGGCG	0.193
AGTGTTGC	-0.049
TAATCGCA	0.125
AGTCAGAG	-0.127
AAGAGAAG	0.0526
AGCGTTGC	-0.118
ACGACAGG	0.05
AGGTTCGC	-0.26

Sequence	PBM E-score
AATATGTA	0.159
ACTCACCC	-0.0575
ACTCCGCC	-0.174
TAGAACGA	0.26
ATACACCC	0.0364
CAAGTGAA	-0.12
TGAACGAA	0.126
GGCGGAAA	-0.0962
CCTAGGTA	-0.142
AGGCTCAG	-0.243
CGGGAAAC	0.118
ATACCCCC	-0.192
GAGAACCA	-0.0248
CCCCCACC	-0.401
ATACTCTC	0.1
CACGGGAA	-0.00566
ACCATGGT	-0.133
CGGTCGTC	0.113
CCCCTTTA	-0.242
ACTCTGAG	-0.169
CCCAGACG	-0.1
CCGTAACC	0.0441
ATTGCAGA	0.0469
ATCTCTTG	-0.13
CTCCCATA	-0.144

Sequence	PBM E-score
GCTACGCC	-0.0953
GAGGGAAA	-0.0973
AGGGCACT	-0.0944
CCTCATGC	-0.328
ACAGCCAC	-0.109
CACCCTGG	-0.33
ACTTCATG	-0.026
CACCCGTA	0.217
ATCGTCCG	0.186
AAATTCAT	-0.0345
ACGCGCCG	0.0196
AATCCATG	-0.097
AACAGTTA	0.0138
CCGCGAAC	0.00614
AGAGGAGC	-0.143
ACACCCGC	0.0446
AAGTATTA	0.0983
GACCAAAC	0.0619
TAGTCCGA	-0.0678
GCTCAGCA	0.0463
CTTACACC	-0.236
AGCCCTAT	-0.105
AAAAACAT	0.00908
CTTGGACA	-0.0157
ACCCCTAC	-0.271

Sequence	PBM E-score
AATAGGTG	-0.0129
TGAACCCA	-0.00982
CAGTCGCC	-0.148
AGTTTTTA	0.12
AGGAAGCA	-0.354
AGATTCAT	-0.0293
CGTAGAAA	0.318
GAAACTTA	0.115
AGCCGGAT	-0.208
CACAACAA	-0.0597
AATCTGGT	-0.106
CGTACTAC	0.274
AAACTTTA	0.0717
CAAGTGGA	-0.104
CCTGAGGA	-0.115
AGTCAGGG	-0.168
AGCCTTGC	0.047
ACTATGTC	0.113
ATAGGCTG	-0.0438

Reference: the supplement of paper PMC3334620
